# Measurements from PubChem BioAssay AID248 (DTP/NCI, 2004).
# The list is a part of this screen's results and no random one: its compounds were picked by chemical class. Not every dose and run of a compound is shown. T/C is the treated group as % of the vehicle group. Where survival is the endpoint, the PubChem record calls one and a half times the control and up active, and a quarter to a half above the control has no call in these data; cut-offs in other NCI protocols can differ. Schedules are NCI's codes, taken here to give the interval after Q, in days (D) or hours (H), and the number of doses after X. Some T/C values are marked as having no survivor count here; that says nothing about deaths at the dose. Some entries hold several experiments; the values are given in rising order.
# System: L1210 leukemia ip in BDF1 mice, survival T/C
# Assay: NCI In Vivo Anticancer Drug Screen. Data for tumor model L1210 Leukemia (intraperitoneal) in B6D2F1 (BDF1) mice
# Settings: T/C endpoint: mean survival time, higher T/C = longer survival
# [1] = dose: 0.05 mg/kg/injection, schedule: Q01DX009 (ip), vehicle: other
# [2] = dose: 0.1 mg/kg/injection, schedule: Q01DX009 (ip), vehicle: other
# [3] = dose: 0.2 mg/kg/injection, schedule: Q01DX009 (ip), vehicle: other
# [4] = dose: 0.4 mg/kg/injection, schedule: Q01DX009 (ip), vehicle: other
# [5] = dose: 0.8 mg/kg/injection, schedule: Q01DX009 (ip), vehicle: other
# [6] = dose: 1.6 mg/kg/injection, schedule: Q01DX009 (ip), vehicle: other
smiles,measurement,setting,value
CC(=O)OCC12CCC(C)=CC1OC1C(O)C(O)C2(C)C12CO2 (stereo unspecified),T/C,"dose: 0.01 mg/kg/injection, schedule: Q04DX003 (ip), vehicle: other",124 % of control [survivor count not shown]
same,T/C,"dose: 0.02 mg/kg/injection, schedule: Q01DX009 (ip), vehicle: other",111 [survivor count not shown] and 118 % of control [survivor count not shown]
same,T/C,"dose: 0.02 mg/kg/injection, schedule: Q04DX003 (ip), vehicle: other",136 % of control [survivor count not shown]
same,T/C,[1],133 [survivor count not shown] and 134 % of control [survivor count not shown]
same,T/C,"dose: 0.05 mg/kg/injection, schedule: Q04DX003 (ip), vehicle: other",140 % of control [survivor count not shown]
same,T/C,[2],146 [survivor count not shown] and 148 % of control [survivor count not shown]
same,T/C,"dose: 0.1 mg/kg/injection, schedule: Q04DX003 (ip), vehicle: other",139 % of control [survivor count not shown]
same,T/C,[3],131 [survivor count not shown] and 141 % of control [survivor count not shown]
same,T/C,"dose: 0.2 mg/kg/injection, schedule: Q04DX003 (ip), vehicle: other",139 % of control [survivor count not shown]
same,T/C,[4],159 [survivor count not shown] and 171 % of control [survivor count not shown]
same,T/C,"dose: 0.4 mg/kg/injection, schedule: Q04DX003 (ip), vehicle: other",113 % of control [survivor count not shown]
same,T/C,[5],121 [survivor count not shown] and 183 % of control [survivor count not shown]
same,T/C,[6],90 % of control [survivor count not shown]
CC1=C[C@H]2O[C@@H]3[C@H](O)[C@@H](O)[C@](C)([C@@]2(CO)CC1)[C@@]31CO1,T/C,[3],113 % of control [survivor count not shown]
same,T/C,[4],131 % of control [survivor count not shown]
same,T/C,"dose: 0.5 mg/kg/injection, schedule: Q01DX009 (ip), vehicle: saline",107 % of control [survivor count not shown]
same,T/C,[5],151 % of control [survivor count not shown]
same,T/C,"dose: 1.0 mg/kg/injection, schedule: Q01DX009 (ip), vehicle: saline",107 % of control [survivor count not shown]
same,T/C,[6],133 % of control [survivor count not shown]
same,T/C,"dose: 2.0 mg/kg/injection, schedule: Q01DX009 (ip), vehicle: saline",122 % of control [survivor count not shown]
same,T/C,"dose: 4.0 mg/kg/injection, schedule: Q01DX009 (ip), vehicle: saline",127 % of control [survivor count not shown]
same,T/C,"dose: 8.0 mg/kg/injection, schedule: Q01DX009 (ip), vehicle: saline",91 % of control [survivor count not shown]
CC(=O)OC[C@]12CC(=O)C(C)=C[C@H]1O[C@@H]1C(=O)[C@@H](OC(C)=O)[C@@]2(C)[C@@]12CO2,T/C,[1],161 % of control [survivor count not shown]
same,T/C,[2],136 % of control [survivor count not shown]
same,T/C,[3],147 % of control [survivor count not shown]
same,T/C,[4],195 % of control [survivor count not shown]
same,T/C,[5],168 % of control [survivor count not shown]
same,T/C,"dose: 1.2 mg/kg/injection, schedule: Q01DX009 (ip), vehicle: other",194 % of control [survivor count not shown]
same,T/C,[6],209 % of control [survivor count not shown]
CC1=C[C@H]2O[C@H]3[C@H](O)[C@@H](OC(=O)CCl)[C@](C)([C@@]2(COC(=O)CCl)CC1)[C@@]31CO1,T/C,[2],104 % of control [survivor count not shown]
same,T/C,[3],111 % of control [survivor count not shown]
same,T/C,[4],126 % of control [survivor count not shown]
same,T/C,[5],129 % of control [survivor count not shown]
same,T/C,[6],131 % of control [survivor count not shown]
same,T/C,"dose: 3.2 mg/kg/injection, schedule: Q01DX009 (ip), vehicle: other",149 % of control [survivor count not shown]
same,T/C,"dose: 6.4 mg/kg/injection, schedule: Q01DX009 (ip), vehicle: other",144 % of control [survivor count not shown]
